Data on two substances can be found in paper PMC8858932.

Experiment [1] addresses T1, Bombyx mori translationally controlled tumor protein, wild type, FLAG-tagged (FLAG-TCTP-WT) (Bombyx mori) (UniProt Q75VN3).
T1 sequence: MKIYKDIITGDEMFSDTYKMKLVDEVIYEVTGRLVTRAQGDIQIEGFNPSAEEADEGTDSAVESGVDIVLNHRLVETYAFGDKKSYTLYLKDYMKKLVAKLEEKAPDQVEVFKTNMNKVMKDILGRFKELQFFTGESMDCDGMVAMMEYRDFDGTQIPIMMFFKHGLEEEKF
Put plainly: affinity purification with mass spectrometry; whole-cell lysates (RIPA buffer) of BmN cell lines stably expressing FLAG-TCTP-WT or FLAG-TCTP-K164R; immunoprecipitation with anti-FLAG M2 affinity gel; eluate digested with trypsin and analysed by LC-MS/MS (MaxQuant, at least one unique peptide).

The target of experiment [2] is T2, Bombyx mori translationally controlled tumor protein, K164R mutant, FLAG-tagged (FLAG-TCTP-K164R) (Bombyx mori) (UniProt Q75VN3).
T2 sequence: T1 sequence with K164R
The description is as above.

Residue numbers refer to the chain shown, from its start. No constants are given. Whether binding was seen depends on the method and setting. In cells and extracts the contact can be indirect. Here binding means that the protein was enriched with, or labelled near, the bait; the list need not be complete. For some of these results: A no says only that the protein was not detected with the bait. Tags and fused reporters may be left off the sequences shown.

Regarding “Bombyx mori interleukin enhancer binding factor (BmILF)”, the binding result is listed as “binds” in experiment [1] and “no binding” in experiment [2].

For “SUMO-activating enzyme (Bombyx mori (endogenous in BmN))”, the binding result in experiment [1] is given as “binds”; in experiment [2] it was “no binding”.
